Article PMC8390553
Results are given in words; binding and its absence hold for the method and conditions named. Binding seen in cells or lysates may run through a third protein. Some results given as binding are weak or reduced against the parent protein; the word gives no strength. For some assays here: Where a sequence is shown, tags or fusion partners need not be part of it.

Chains of the proteins cited; added tags and fusions are not shown. Lines headed by an entry give the natural chain unless they say otherwise; changes in a name come on top.
UniProt Q2NKJ3: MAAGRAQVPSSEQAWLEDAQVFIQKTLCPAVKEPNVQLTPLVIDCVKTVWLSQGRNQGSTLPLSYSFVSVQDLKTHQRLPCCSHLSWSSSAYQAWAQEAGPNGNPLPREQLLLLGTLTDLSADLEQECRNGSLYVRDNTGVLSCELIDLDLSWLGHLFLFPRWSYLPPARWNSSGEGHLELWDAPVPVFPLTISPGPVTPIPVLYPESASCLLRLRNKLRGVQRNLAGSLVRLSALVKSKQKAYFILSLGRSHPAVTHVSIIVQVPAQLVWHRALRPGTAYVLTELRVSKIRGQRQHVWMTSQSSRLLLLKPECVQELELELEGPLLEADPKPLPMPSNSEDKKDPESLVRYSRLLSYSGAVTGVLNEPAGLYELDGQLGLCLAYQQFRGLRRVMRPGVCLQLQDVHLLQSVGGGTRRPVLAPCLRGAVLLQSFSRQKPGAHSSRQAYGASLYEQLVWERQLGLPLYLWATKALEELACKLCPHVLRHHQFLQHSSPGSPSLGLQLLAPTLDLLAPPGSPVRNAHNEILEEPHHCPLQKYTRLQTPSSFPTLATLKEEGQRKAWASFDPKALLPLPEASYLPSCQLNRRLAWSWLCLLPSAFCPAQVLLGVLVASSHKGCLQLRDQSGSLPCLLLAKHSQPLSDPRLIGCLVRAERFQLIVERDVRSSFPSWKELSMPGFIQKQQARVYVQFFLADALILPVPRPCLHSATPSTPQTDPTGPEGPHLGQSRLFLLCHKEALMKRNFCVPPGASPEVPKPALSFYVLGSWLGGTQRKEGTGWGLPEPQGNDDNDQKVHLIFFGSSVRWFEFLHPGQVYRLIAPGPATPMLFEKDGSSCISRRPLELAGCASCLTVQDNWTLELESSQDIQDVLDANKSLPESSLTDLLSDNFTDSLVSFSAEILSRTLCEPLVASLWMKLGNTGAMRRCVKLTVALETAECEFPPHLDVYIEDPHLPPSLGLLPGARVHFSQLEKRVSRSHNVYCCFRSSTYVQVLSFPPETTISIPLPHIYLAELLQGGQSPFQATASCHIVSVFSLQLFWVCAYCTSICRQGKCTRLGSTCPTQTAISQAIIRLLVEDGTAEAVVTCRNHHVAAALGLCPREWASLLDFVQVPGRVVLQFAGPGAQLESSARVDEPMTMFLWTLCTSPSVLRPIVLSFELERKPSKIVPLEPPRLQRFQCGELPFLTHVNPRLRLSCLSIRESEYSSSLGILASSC
UniProt Q86WV5: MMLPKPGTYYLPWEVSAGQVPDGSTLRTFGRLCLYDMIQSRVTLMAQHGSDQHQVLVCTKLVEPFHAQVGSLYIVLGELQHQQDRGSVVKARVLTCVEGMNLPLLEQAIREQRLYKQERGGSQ
UniProt Q9UQE7: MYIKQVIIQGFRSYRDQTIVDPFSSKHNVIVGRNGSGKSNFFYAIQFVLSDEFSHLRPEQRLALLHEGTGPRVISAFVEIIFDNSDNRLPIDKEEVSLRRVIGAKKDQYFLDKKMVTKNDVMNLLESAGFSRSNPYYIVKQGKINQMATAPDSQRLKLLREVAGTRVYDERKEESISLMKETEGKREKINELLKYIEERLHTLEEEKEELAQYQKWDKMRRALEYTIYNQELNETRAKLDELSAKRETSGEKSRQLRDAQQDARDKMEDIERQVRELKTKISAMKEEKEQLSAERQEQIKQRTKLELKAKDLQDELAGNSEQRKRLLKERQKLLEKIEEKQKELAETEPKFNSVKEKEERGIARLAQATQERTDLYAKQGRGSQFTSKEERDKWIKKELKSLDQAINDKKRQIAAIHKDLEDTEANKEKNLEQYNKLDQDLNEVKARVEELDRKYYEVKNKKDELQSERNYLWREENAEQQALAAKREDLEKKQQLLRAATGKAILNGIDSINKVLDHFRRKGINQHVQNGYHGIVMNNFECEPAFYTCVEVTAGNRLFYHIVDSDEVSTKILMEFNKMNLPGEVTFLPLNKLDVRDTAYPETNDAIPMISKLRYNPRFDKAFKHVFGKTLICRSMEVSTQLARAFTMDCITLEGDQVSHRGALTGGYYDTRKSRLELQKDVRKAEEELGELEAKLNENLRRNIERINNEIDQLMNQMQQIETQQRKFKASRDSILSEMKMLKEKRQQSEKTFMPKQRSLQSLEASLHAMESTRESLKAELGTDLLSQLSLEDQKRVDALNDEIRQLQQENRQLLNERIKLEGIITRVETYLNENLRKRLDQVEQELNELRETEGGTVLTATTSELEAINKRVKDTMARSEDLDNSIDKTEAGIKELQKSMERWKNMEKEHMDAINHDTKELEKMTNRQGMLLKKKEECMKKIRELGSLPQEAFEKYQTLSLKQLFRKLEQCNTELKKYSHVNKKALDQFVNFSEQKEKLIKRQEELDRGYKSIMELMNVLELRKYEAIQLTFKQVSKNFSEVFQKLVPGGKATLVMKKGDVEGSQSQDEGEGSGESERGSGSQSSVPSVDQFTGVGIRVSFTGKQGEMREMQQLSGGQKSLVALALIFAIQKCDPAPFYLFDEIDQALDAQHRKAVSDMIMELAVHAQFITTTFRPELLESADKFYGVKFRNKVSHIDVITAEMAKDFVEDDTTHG

Tests used:
[1] = biological target: CTC1-STN1-TEN1 (CST) complex, epitope-tagged, overexpressed (human) (UniProt Q2NKJ3+Q9H668+Q86WV5); assay: co-IP; IP of Flag-tagged proteins from nuclease-treated lysates of HEK293T cells expressing Flag-CTC1, Flag-STN1 or the full CST complex; blots for endogenous SMC3 and SMC1A
[2] = biological target: T1, Flag-tagged STN1, expressed alone (human) (UniProt Q9H668); assay: as above
T1 sequence: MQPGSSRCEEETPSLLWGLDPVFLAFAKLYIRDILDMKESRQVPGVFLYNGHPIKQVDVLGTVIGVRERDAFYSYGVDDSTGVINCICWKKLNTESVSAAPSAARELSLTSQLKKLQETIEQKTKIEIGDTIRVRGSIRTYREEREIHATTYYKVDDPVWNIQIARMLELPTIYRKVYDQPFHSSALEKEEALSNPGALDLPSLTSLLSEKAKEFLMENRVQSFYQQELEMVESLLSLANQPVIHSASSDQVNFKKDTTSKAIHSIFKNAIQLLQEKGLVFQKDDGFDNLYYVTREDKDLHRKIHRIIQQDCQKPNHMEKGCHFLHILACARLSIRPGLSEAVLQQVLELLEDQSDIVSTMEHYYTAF

- binding [1]: binds
- binding [2]: binds
Substance: SMC3, endogenous (HEK293T) (from UniProt Q9UQE7 1-1217)
